# Source: patent US9457033B2, “Steroid alkaloids and uses thereof as antimicrobial agents against electron transport-deficient microbes and as potentiators for antimicrobial agents against pathogenic bacteria” (priority 2011, dated 2016)
# At least one compound was matched to its structure with a doubt left. Some results were stated once for a whole list of compounds, not compound by compound.
# What was measured:
# [1] = tested on: S. aureus ATCC 29213; test: Checkerboard assay, aminoglycoside and tomatidine; assay type: cell-based, Staphylococcus aureus; settings: aminoglycoside with tomatidine, tomatidine MIC considered 32 μg/ml, values overestimated
# Method: This checkerboard protocol (Eliopoulos and Moellering, 1996) was conducted by a microdilution method similar to that use for standard MICs determination. In 96 wells plates, antibiotics were loaded at a 4× concentration (where X is the maximal tested concentration) in well A1 and at a 2× concentration in the others wells of the column 1. Antibiotics were serially diluted 1:1 from the column 2 to column 10. […] Wells A12, B12, […] are positive untreated controls whereas wells […] are negative non-inoculated controls. […] The FIC index was calculated as follow (Eliopoulos and Moellering, 1996): FIC […]/MICB, where A and B are MICs of compounds A and B in combination and where MICA and MICB are the MICs of compound A alone and of compound B alone, respectively, and FICA and FICB are the FICs of compound A and of compound B, respectively.
# [2] = tested on: protein, DNA, RNA and cell wall peptidoglycan biosynthesis in ATCC 29213; test: Macromolecular biosynthesis assay, incorporation of radiolabeled precursors; assay type: cell-based, Staphylococcus aureus; settings: control antibiotics at approximately 4×MIC; FIG. 3A
molecule,measurement,setting,value
"NCC[C@H](O)C(=O)N[C@@H]1C[C@H](N)[C@@H](O[C@H]2O[C@H](CN)[C@@H](O)[C@H](O)[C@H]2O)[C@H](O)[C@H]1O[C@H]1O[C@H](CO)[C@@H](O)[C@H](N)[C@H]1O [Amikacin, amikacin]",FIC index,[1]; listed as amikacin,below 0.5
CO[C@H]1/C=C/O[C@@]2(C)Oc3c(C)c(O)c4c(O)c(c(/C=N/N5CCN(C)CC5)c(O)c4c3C2=O)NC(=O)/C(C)=C\C=C\[C@H](C)[C@H](O)[C@@H](C)[C@@H](O)[C@@H](C)[C@H](OC(C)=O)[C@@H]1C [rifampicin],incorporation of radiolabeled precursors into the targeted macromolecules,[2],preferentially inhibited
gentamicin,FIC index,[1]; listed as gentamicin,below 0.5
"NC[C@H]1O[C@H](O[C@H]2[C@H](O)[C@@H](O[C@H]3O[C@H](CO)[C@@H](O)[C@H](N)[C@H]3O)[C@H](N)C[C@@H]2N)[C@H](N)C[C@@H]1O [Tobramycin, tobramycin]",FIC index,[1]; listed as tobramycin,below 0.5
"NC[C@H]1O[C@H](O[C@H]2[C@H](O)[C@@H](O[C@H]3O[C@H](CO)[C@@H](O)[C@H](N)[C@H]3O)[C@H](N)C[C@@H]2N)[C@H](O)[C@@H](O)[C@@H]1O [Kanamycin, kanamycin]",FIC index,[1]; listed as kanamycin,below 0.5
"[H]/N=C(/N)N[C@H]1[C@H](O)[C@@H](O)[C@H](O[C@@H]2O[C@@H](C)[C@](O)(C=O)[C@H]2O[C@@H]2O[C@@H](CO)[C@H](O)[C@@H](O)[C@@H]2NC)[C@@H](N/C(N)=N\[H])[C@@H]1O [Streptomycin, streptomycin]",FIC index,[1]; listed as streptomycin,below 0.5
